According to patent US4812469A, “Acetamides derived from 2,3-dihydro-3-phenyl-2-benzofuranone” (Adir Et Cie, priority 1987, dated 1989):
Where a name gives a salt, the structure may show the parent alone. At least one read-out could not be matched to a standard name with certainty.

Test system: survival of cerebral tissue during acute hypoxia
Experiment: Acute hypobaric hypoxia in mice, survival time of the brain (final respiratory gasp)
Assay type: in vivo, mice (male CD1)
Conditions: 100 mg/kg I.P., 30 minutes before hypoxia (160 mbar), vs control batch
Procedure: The compounds of the present invention were tested in respect of their capacity to prolong the survival of cerebral tissue during acute hypoxia in mice, or to maintain the level of tissue energy-rich compounds in rats subjected to a fall in the oxygen supply [Pharmacology of Cerebral Ischemia, ([…]) p. 334-339 Elsevier Science Publishers B.V., J. Krieglstein ed.]. […] Forsch. Drug Res. (1986), 36 II No. 9, p. 1314-1320].
The survival of the brain is assessed by measuring the time at which the final respiratory gasp is observed.
The survival time of a treated batch is compared with that of a control batch receiving only the solvent.

## CN1CCN(C(=O)Cc2ccc3c(c2)C(c2ccccc2)C(=O)O3)CC1 (stereo not drawn) [Example 5, 2-(2,3-Dihydro-2-oxo-3-phenyl-5-benzofuranyl)-1-(4-methylpiperazinyl)-1-oxoethane tartrate]
Listed as Ex. 5, tartrate
  Percentage increase in the survival time: +111%

## O=C1Oc2ccc(CC(=O)N3CCN(Cc4ccc5c(c4)OCO5)CC3)cc2C1c1ccccc1 (stereo not drawn) [Example 4]
Listed as Ex. 4
  Percentage increase in the survival time: +133%

## CN(C)CCOC(=O)COc1ccc(Cl)cc1 [Meclofenoxate, meclofenoxate, reference compound]
  Percentage increase in the survival time: +22%
